According to publication PMC11900821:
No constants are given. Whether binding was seen depends on the method and setting. In cells and extracts the contact can be indirect. A yes stands for co-enrichment or nearness to the bait. Other partners may have been found.

Sequences of proteins named here, by UniProt entry; tags and fusion partners are left off.
UniProt P40763: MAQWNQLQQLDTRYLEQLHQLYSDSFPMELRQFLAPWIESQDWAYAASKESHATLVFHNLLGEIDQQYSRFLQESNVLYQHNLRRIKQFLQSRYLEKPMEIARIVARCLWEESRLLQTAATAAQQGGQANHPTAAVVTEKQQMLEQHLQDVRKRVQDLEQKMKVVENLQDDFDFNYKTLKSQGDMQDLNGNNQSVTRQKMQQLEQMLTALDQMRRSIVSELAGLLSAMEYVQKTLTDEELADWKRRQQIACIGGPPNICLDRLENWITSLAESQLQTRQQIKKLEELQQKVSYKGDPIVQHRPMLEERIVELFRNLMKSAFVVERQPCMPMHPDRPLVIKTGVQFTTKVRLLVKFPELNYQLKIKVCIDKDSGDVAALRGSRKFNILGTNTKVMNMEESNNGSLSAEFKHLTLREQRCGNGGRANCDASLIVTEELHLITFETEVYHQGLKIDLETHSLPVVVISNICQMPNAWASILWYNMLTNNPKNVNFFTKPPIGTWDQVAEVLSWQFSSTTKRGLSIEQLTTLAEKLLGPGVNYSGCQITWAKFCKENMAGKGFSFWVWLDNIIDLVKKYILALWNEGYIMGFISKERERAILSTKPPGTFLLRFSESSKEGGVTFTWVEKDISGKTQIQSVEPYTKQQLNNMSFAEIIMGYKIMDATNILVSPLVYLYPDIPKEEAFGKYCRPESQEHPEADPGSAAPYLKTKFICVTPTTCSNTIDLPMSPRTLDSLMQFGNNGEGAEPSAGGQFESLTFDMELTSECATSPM

Molecular target: wild-type (WT) STAT3, Flag-tagged and HA-tagged (human) (UniProt P40763)
Assay: affinity purification with mass spectrometry; enrichment of FLAG-tagged STAT3 protein, followed by LC-MS analysis of interacting proteins

binding: binds
B1: DIRAS2 (protein, UniProt Q96HU8 1-199)
chain: MPEQSNDYRVAVFGAGGVGKSSLVLRFVKGTFRESYIPTVEDTYRQVISCDKSICTLQITDTTGSHQFPAMQRLSISKGHAFILVYSITSRQSLEELKPIYEQICEIKGDVESIPIMLVGNKCDESPSREVQSSEAEALARTWKCAFMETSAKLNHNVKELFQELLNLEKRRTVSLQIDGKKSKQQKRKEKLKGKCVIM
